No constants are given. Whether binding was seen depends on the method and setting. Some entries that bind do so weakly or less than the wild type.
Columns and labels:
[1] = biological target: T1, Xenopus cdc2/cyclin B complex (Xenopus laevis) (UniProt P24033+P13351); experiment: p13-Sepharose precipitates of Xenopus extracts probed with anti-cyclin B2 antibody
[2] = biological target: Xenopus cdc2 (34 kD) (Xenopus laevis) (UniProt P24033); experiment: p13-Sepharose precipitation of Xenopus oocyte extracts, Western blot
[3] = biological target: T1, Xenopus cdc2/cyclin B complex (Xenopus laevis); experiment: depletion of Xenopus extracts on p13-Sepharose

Chains of the proteins cited; added tags and fusions are not shown. Lines headed by an entry give the natural chain unless they say otherwise; changes in a name come on top.
UniProt P24033: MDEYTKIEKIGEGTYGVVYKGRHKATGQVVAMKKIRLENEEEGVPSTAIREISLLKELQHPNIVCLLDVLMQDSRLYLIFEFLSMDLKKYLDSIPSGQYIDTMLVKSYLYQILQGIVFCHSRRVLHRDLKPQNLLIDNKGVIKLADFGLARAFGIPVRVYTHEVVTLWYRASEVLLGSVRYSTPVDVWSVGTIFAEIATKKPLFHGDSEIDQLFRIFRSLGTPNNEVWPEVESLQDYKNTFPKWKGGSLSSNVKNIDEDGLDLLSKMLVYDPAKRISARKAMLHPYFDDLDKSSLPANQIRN
UniProt P13351: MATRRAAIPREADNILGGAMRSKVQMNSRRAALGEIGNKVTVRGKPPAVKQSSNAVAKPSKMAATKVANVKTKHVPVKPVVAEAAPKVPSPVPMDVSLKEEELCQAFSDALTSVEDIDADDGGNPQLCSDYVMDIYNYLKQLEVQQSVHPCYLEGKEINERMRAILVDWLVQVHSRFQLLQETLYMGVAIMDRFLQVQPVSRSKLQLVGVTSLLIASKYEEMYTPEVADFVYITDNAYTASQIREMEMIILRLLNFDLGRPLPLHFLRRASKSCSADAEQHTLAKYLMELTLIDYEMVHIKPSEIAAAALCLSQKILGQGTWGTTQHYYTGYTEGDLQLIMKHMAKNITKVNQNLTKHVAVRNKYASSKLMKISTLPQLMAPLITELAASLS

binding [1]: binds
binding [2]: binds
binding [3]: binds
B1: p13 protein encoded by the suc1 gene (protein, fission yeast, UniProt P08463 1-113, looked up)
chain: MSKSGVPRLLTASERERLEPFIDQIHYSPRYADDEYEYRHVMLPKAMLKAIPTDYFNPETGTLRILQEEEWRGLGITQSLGWEMYEVHVPEPHILLFKREKDYQMKFSQQRGG
